Data as given in PubChem BioAssay AID652272 (Drosophila RNAi Screening Center, 2013)
The screen tested about 21,000 reagents; below is an unselected part of those that have a named target and a result. Of all reagents, 503 (2.4%) were called active. 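Raw plate light values, not normalised; calls rest on replicate z-scores that were not deposited; hits include reporter decreases as well as increases.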 Names joined by + are all predicted targets of the reagent. No sequences are given here. Not stated in the record: the amount of reagent, the time to read-out.

- Purpose: 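Genome-wide knock-down search for components of Hedgehog signalling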 (primary screen)
- Cells: Drosophila clone 8 (Cl8) cells
- Knock-down reagent: long dsRNA against Drosophila genes
- Measured: 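Plate reader light from a firefly reporter under a ptc promoter fragment that responds to Hedgehog, with Renilla light as transfection reference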
- Direction: firefly Hh reporter signal: higher = more ptc reporter light; Renilla reference signal: higher = more Renilla control light
- Active means: 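Hit when the z-score averaged over two replicates is under -2 or over +3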
- Calls: active = hit: reporter lowered or raised; inactive = not a hit

Target gene | DRSC id | firefly Hh reporter signal, replicate 1 | firefly Hh reporter signal, replicate 2 | firefly Hh reporter signal, replicate 3 | Renilla reference signal, replicate 1 | Renilla reference signal, replicate 2 | Call
Scox (Synthesis of cytochrome c oxidase) | DRSC03117 | 1.02e5 | 62777 | – | 2464 | 5977 | inactive
Tpc2 | DRSC04322 | 71952 | 47404 | – | 1659 | 3239 | inactive
Ms (Myosuppressin) | DRSC16041 | 1.45e5 | 97660 | – | 5773 | 3953 | inactive
CG34452 | DRSC09387 | 2.15e5 | – | – | 4851 | – | inactive
CG1636 | DRSC18111 | 1.40e5 | 7.18e5 | 1.05e5 | 3353 | 39473 | inactive
naz (nazgul) | DRSC14790 | 5.97e5 | 1.03e5 | – | 40055 | 2603 | inactive
naz (nazgul) | DRSC16199 | 4.27e5 | 78155 | – | 27859 | 2182 | inactive
SWIP (Strumpellin and WASH-interacting protein) | DRSC19540 | 83344 | 1.75e5 | – | 2944 | 7193 | inactive
santa-maria | DRSC00994 | 5.39e5 | 1.92e5 | – | 25594 | 7872 | inactive
santa-maria | DRSC02180 | 77852 | 74362 | – | 3728 | 3558 | inactive
kto (kohtalo) | DRSC10983 | 72019 | 61136 | – | 3098 | 2705 | inactive
CG18641 | DRSC00527 | 94768 | 1.31e5 | – | 2506 | 2857 | inactive
Taf1 (TBP-associated factor 1) | DRSC12607 | 53751 | 51786 | – | 2028 | 1600 | inactive
pasi2 (pasiflora 2) | DRSC16380 | 1.03e5 | 1.13e5 | – | 3357 | 3017 | inactive
CG32106 | DRSC09219 | 2.50e5 | – | – | 5126 | – | inactive
Pex23 (Peroxin 23) | DRSC10323 | 1.08e5 | 1.01e5 | – | 3867 | 3320 | inactive
Pex23 (Peroxin 23) | DRSC10645 | 76565 | 96272 | – | 2620 | 2730 | inactive
CG13793 | DRSC02297 | 94050 | 52244 | – | 1555 | 5488 | inactive
CG1503 | DRSC20512 | 81482 | 97528 | – | 1952 | 1975 | inactive
Cdc5 (Cell division cycle 5) | DRSC08577 | 45190 | 46240 | – | 3211 | 2640 | active
E2f2 (E2F transcription factor 2) | DRSC03320 | 1.04e5 | 1.10e5 | – | 4337 | 4568 | inactive
CG30183 | DRSC04450 | 71424 | 46087 | – | 1756 | 5082 | inactive
CG30183 | DRSC04472 | 70869 | 49793 | – | 1655 | 5266 | inactive
CG3603 | DRSC18317 | 1.00e5 | 2.50e5 | – | 4048 | 9312 | inactive
stil (stand still) | DRSC07699 | 75315 | 34272 | – | 3532 | 1508 | inactive
hrm (hermes) | DRSC04853 | 89357 | 69657 | – | 1808 | 5706 | inactive
Mgat3 | DRSC01305 | 5.12e5 | 1.89e5 | – | 25386 | 7298 | inactive
CarT (Carcinine transporter) | DRSC03196 | 1.81e5 | 85490 | – | 6792 | 3241 | inactive
kuz (kuzbanian) | DRSC03555 | 81848 | 45128 | – | 2103 | 3660 | inactive
CG18636 | DRSC02685 | 1.04e5 | 53232 | – | 2854 | 5275 | inactive
Fum3 (Fumarase 3) | DRSC10592 | 30624 | 45197 | 35772 | 4793 | 2704 | inactive
Trmt112 (tRNA methyltransferase subunit 11-2) | DRSC11685 | 1.07e5 | 1.62e5 | – | 1692 | 4663 | inactive
CG30050 | DRSC05342 | 92449 | 1.89e5 | – | 2497 | 8697 | inactive
lmgA + lmgB | DRSC03566 | 95511 | 44883 | – | 2448 | 3789 | inactive
maf-S | DRSC07348 | 88400 | 52837 | – | 3200 | 3868 | inactive
PKD (Protein Kinase D) | DRSC16200 | 5.62e5 | 93645 | – | 33923 | 2409 | inactive
p53 | DRSC17024 | 1.03e5 | 82180 | – | 4823 | 3643 | inactive
Nep6 (Neprilysin 6) | DRSC19877 | 42148 | 46117 | – | 1472 | 1458 | inactive
CG4880 | DRSC19923 | 1.04e5 | 99168 | – | 2603 | 2280 | inactive
beat-Va (beaten path Va) | DRSC14192 | 1.18e5 | 1.16e5 | – | 4365 | 2520 | inactive
Spn42Db (Serpin 42Db) | DRSC05009 | 70484 | 70400 | – | 1739 | 5194 | inactive
CG1077 | DRSC12146 | 89040 | 1.98e5 | – | 3012 | 5434 | inactive
CG30026 | DRSC05276 | 1.53e5 | 3.25e5 | – | 4163 | 10588 | inactive
CG42455 + vnc | DRSC09867 | 1.09e5 | 77146 | – | 5380 | 3493 | inactive
SMC1 (Structural maintenance of chromosomes 1) | DRSC16846 | 6.34e5 | 87447 | – | 30282 | 2531 | inactive
Pep (Protein on ecdysone puffs) | DRSC11252 | 1.05e5 | 82904 | – | 3800 | 2950 | inactive
CG7860 | DRSC20060 | 82720 | 79648 | – | 2205 | 1673 | inactive
Phax (Phosphorylated adaptor for RNA export) | DRSC07066 | 1.30e5 | 61496 | – | 3685 | 5968 | inactive
gNacalpha | DRSC00654 | 1.01e5 | 1.02e5 | – | 2595 | 2475 | inactive
Myo28B1 (Myosin 28B1) | DRSC03375 | 2.10e5 | 80800 | – | 4902 | 7226 | inactive
CG34150 | DRSC13689 | 63601 | 2.16e5 | – | 14935 | 4965 | inactive
SCAR | DRSC03426 | 1.50e5 | 66906 | – | 4089 | 6552 | inactive
ttm2 (tiny tim 2) | DRSC08268 | 1.01e5 | 45622 | – | 3307 | 3156 | inactive
Traf6 (TNF-receptor-associated factor 6) | DRSC18725 | 1.35e5 | 2.85e5 | – | 5280 | 10281 | inactive
Osi8 (Osiris 8) | DRSC12277 | 88251 | 1.12e5 | – | 3184 | 3659 | inactive
CG42857 | DRSC12750 | 1.88e5 | – | – | 2461 | – | inactive
ball (ballchen) | DRSC14145 | 56300 | 78021 | – | 2195 | 2266 | inactive
